# Assay results

The results are deposited in PubChem (AID504749; NCATS, 2011).

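Malaria parasite (P. falciparum) lines kept in red blood cells; parasite DNA is measured by SYBR Green fluorescence after lysis, 72 h after compound addition. Each compound was titrated across a series from about 0.000037 to 29 µM. The number is the fitted AC50, the concentration giving a half-maximal change in signal; a lower value means higher potency, whether the curve shows a decrease or an increase. Calls follow the curve class and fit quality: every row here is inconclusive, covering signal-raising curves and weak, poorly fitted, partial or highest-dose-only inhibition curves.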

Values are in µM. Every entry below has the call inconclusive. Only part of the assay is shown, chiefly results filed as inconclusive. Potencies fitted to partial, single-point or poorly fitting curves are rough.

- CC(=O)O[C@]1(C(C)=O)CC[C@H]2[C@@H]3C=C(Cl)C4=CC(=O)[C@@H]5C[C@@H]5[C@]4(C)[C@H]3CC[C@@]21C [CP335] : potency 19.01 µM (inhibitor, single point)
- CC(=O)O[C@]1(C(C)=O)CC[C@H]2[C@@H]3C=C(Cl)C4=CC(=O)[C@@H]5C[C@@H]5[C@]4(C)[C@H]3CC[C@@]21C [CP262] : potency 16.94 µM (inhibitor, single point)
- CC(=O)O[C@]1(C(C)=O)CC[C@H]2[C@@H]3C=C(Cl)C4=CC(=O)[C@@H]5C[C@@H]5[C@]4(C)[C@H]3CC[C@@]21C [CP325] : potency 19.01 µM (inhibitor, single point)
- CC(=O)O[C@]1(C(C)=O)CC[C@H]2[C@@H]3C=C(Cl)C4=CC(=O)[C@@H]5C[C@@H]5[C@]4(C)[C@H]3CC[C@@]21C [PAD] : potency 10 µM (inhibitor, single point)
- CC(=O)O[C@]1(C(C)=O)CC[C@H]2[C@@H]3C=C(Cl)C4=CC(=O)[C@@H]5C[C@@H]5[C@]4(C)[C@H]3CC[C@@]21C [AA1029] : potency 17.78 µM (inhibitor, single point)
- CC(=O)O[C@]1(C(C)=O)CC[C@H]2[C@@H]3C=C(Cl)C4=CC(=O)[C@@H]5C[C@@H]5[C@]4(C)[C@H]3CC[C@@]21C [CP269] : potency 19.01 µM (inhibitor, single point)
- CC(=O)O[C@]1(C(C)=O)CC[C@H]2[C@@H]3C=C(Cl)C4=CC(=O)[C@@H]5C[C@@H]5[C@]4(C)[C@H]3CC[C@@]21C [CP215] : potency 19.01 µM (inhibitor, single point)
- CC(=O)O[C@]1(C(C)=O)CC[C@H]2[C@@H]3C=C(Cl)C4=CC(=O)[C@@H]5C[C@@H]5[C@]4(C)[C@H]3CC[C@@]21C [CP191] : potency 15.85 µM (inhibitor, single point)
- CC(=O)O[C@]1(C(C)=O)CC[C@H]2[C@@H]3C=C(Cl)C4=CC(=O)[C@@H]5C[C@@H]5[C@]4(C)[C@H]3CC[C@@]21C [CP194] : potency 21.33 µM (inhibitor, single point)
- CC(=O)O[C@]1(C(C)=O)CC[C@H]2[C@@H]3C=C(Cl)C4=CC(=O)[C@@H]5C[C@@H]5[C@]4(C)[C@H]3CC[C@@]21C [CP203] : potency 15.1 µM (inhibitor, single point)
- CC(=O)O[C@]1(C(C)=O)CC[C@H]2[C@@H]3C=C(Cl)C4=CC(=O)[C@@H]5C[C@@H]5[C@]4(C)[C@H]3CC[C@@]21C [C2A] : potency 19.95 µM (inhibitor, single point)
- CC(=O)O[C@]1(C(C)=O)CC[C@H]2[C@@H]3C=C(Cl)C4=CC(=O)[C@@H]5C[C@@H]5[C@]4(C)[C@H]3CC[C@@]21C [CP256] : potency 8.912 µM (inhibitor, partial curve)
- CC(=O)O[C@]1(C(C)=O)CC[C@H]2[C@@H]3C=C(Cl)C4=CC(=O)[C@@H]5C[C@@H]5[C@]4(C)[C@H]3CC[C@@]21C [3D7] : potency 19.95 µM (inhibitor, single point)
- CC(=O)O[C@]1(C(C)=O)CC[C@H]2[C@@H]3C=C(Cl)C4=CC(=O)[C@@H]5C[C@@H]5[C@]4(C)[C@H]3CC[C@@]21C [TAB165] : potency 14.13 µM (inhibitor, single point)
- CC(=O)O[C@]1(C(C)=O)CC[C@H]2[C@@H]3C=C(Cl)C4=CC(=O)[C@@H]5C[C@@H]5[C@]4(C)[C@H]3CC[C@@]21C [DIV14] : potency 15.1 µM (inhibitor, single point)
- CC(=O)O[C@]1(C(C)=O)CC[C@H]2[C@@H]3C=C(Cl)C4=CC(=O)[C@@H]5C[C@@H]5[C@]4(C)[C@H]3CC[C@@]21C [TAB113] : potency 11.22 µM (inhibitor, single point)
- CC(=O)O[C@]1(C(C)=O)CC[C@H]2[C@@H]3C=C(Cl)C4=CC(=O)[C@@H]5C[C@@H]5[C@]4(C)[C@H]3CC[C@@]21C [CP260] : potency 10 µM (inhibitor, single point)
- CC(=O)O[C@]1(C(C)=O)CC[C@H]2[C@@H]3C=C(Cl)C4=CC(=O)[C@@H]5C[C@@H]5[C@]4(C)[C@H]3CC[C@@]21C [AS120] : potency 12.59 µM (inhibitor, single point)
- CC(=O)O[C@]1(C(C)=O)CC[C@H]2[C@@H]3C=C(Cl)C4=CC(=O)[C@@H]5C[C@@H]5[C@]4(C)[C@H]3CC[C@@]21C [CP286] : potency 17.78 µM (inhibitor, single point)
- CC(=O)O[C@]1(C(C)=O)CC[C@H]2[C@@H]3C=C(Cl)C4=CC(=O)[C@@H]5C[C@@H]5[C@]4(C)[C@H]3CC[C@@]21C [ATS95] : potency 11.22 µM (inhibitor, single point)
- CC(=O)O[C@]1(C(C)=O)CC[C@H]2[C@@H]3C=C(Cl)C4=CC(=O)[C@@H]5C[C@@H]5[C@]4(C)[C@H]3CC[C@@]21C [DIV30] : potency 19.01 µM (inhibitor, single point)
- CC(=O)O[C@]1(C(C)=O)CC[C@H]2[C@@H]3C=C(Cl)C4=CC(=O)[C@@H]5C[C@@H]5[C@]4(C)[C@H]3CC[C@@]21C [CP237] : potency 11.22 µM (inhibitor, single point)
- CC(=O)O[C@]1(C(C)=O)CC[C@H]2[C@@H]3C=C(Cl)C4=CC(=O)[C@@H]5C[C@@H]5[C@]4(C)[C@H]3CC[C@@]21C [W2] : potency 5.358 µM (inhibitor, partial curve, poor fit)
- CC(=O)O[C@]1(C(C)=O)CC[C@H]2[C@@H]3C=C(Cl)C4=CC(=O)[C@@H]5C[C@@H]5[C@]4(C)[C@H]3CC[C@@]21C [P94_40] : potency 17.78 µM (inhibitor, single point)

For reference, 2 entries once more:

| compound | tested on / at | potency (µM) | curve |
|---|---|---|---|
| `CC(=O)O[C@]1(C(C)=O)CC[C@H]2[C@@H]3C=C(Cl)C4=CC(=O)[C@@H]5C[C@@H]5[C@]4(C)[C@H]3CC[C@@]21C` | PAD | 10 | inhibitor, single point |
| `CC(=O)O[C@]1(C(C)=O)CC[C@H]2[C@@H]3C=C(Cl)C4=CC(=O)[C@@H]5C[C@@H]5[C@]4(C)[C@H]3CC[C@@]21C` | 3D7 | 19.95 | inhibitor, single point |